## Screening data, single-dose tests

Protein sequences, listed by entry. Tags and fused reporters are not part of them.
UniProt I6X8D2, whole entry: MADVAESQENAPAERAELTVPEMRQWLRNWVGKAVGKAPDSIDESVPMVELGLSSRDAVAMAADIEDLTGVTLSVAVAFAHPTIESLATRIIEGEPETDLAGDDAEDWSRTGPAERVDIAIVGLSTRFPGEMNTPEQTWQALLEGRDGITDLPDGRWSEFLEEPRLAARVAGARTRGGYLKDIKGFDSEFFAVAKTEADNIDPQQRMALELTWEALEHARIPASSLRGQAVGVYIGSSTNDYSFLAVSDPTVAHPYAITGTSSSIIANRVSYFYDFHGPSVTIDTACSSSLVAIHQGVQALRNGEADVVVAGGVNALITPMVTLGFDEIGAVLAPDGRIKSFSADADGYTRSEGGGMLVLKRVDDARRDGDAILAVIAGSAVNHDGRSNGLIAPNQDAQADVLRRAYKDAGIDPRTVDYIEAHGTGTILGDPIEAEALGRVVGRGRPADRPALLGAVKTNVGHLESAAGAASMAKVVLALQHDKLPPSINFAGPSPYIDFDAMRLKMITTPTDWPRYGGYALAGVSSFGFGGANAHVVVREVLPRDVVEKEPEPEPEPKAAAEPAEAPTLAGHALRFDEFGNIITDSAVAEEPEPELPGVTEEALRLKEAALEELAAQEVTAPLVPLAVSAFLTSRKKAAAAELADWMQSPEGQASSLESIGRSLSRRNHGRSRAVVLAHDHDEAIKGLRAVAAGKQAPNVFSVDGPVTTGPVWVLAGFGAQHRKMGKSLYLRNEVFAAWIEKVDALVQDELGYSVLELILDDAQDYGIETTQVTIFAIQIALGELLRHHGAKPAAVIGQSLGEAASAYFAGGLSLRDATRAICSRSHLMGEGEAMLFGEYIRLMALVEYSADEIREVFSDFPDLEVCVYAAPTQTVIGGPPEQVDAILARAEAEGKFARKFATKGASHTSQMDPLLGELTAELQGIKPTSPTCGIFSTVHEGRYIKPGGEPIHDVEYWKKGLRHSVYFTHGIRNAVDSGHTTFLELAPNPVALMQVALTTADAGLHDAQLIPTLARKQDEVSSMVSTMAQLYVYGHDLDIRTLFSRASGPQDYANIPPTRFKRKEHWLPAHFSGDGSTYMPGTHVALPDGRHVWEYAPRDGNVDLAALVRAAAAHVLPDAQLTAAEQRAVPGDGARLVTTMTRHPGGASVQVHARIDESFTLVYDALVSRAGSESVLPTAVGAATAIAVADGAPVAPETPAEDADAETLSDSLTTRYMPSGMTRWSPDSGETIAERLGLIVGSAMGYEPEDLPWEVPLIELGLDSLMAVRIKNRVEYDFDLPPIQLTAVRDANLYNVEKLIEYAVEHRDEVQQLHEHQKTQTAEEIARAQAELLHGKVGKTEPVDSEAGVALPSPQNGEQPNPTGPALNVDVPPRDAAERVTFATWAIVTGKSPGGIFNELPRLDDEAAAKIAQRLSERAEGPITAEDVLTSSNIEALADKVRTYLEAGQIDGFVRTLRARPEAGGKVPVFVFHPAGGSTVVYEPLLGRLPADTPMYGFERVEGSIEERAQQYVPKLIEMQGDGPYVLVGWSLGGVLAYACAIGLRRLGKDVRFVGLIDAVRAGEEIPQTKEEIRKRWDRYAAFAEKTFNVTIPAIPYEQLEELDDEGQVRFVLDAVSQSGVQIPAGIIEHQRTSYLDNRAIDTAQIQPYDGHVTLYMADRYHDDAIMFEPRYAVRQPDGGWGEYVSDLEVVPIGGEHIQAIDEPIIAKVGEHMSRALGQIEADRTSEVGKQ

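Polyketide synthase Pks13, Mycobacterium tuberculosis (UniProt I6X8D2). Enzyme assay of the thioesterase domain of polyketide synthase 13; the read-out is not stated. Concentration: 30 µM. Higher reads as stronger inhibition (inferred from which compounds were picked for retests). About 67,000 compounds were tested under these conditions; 0.46% (about 300) showed 50% or more at least once.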

Results are given as percent effect. The controls that fix the scale are not given in the record; negative values are as filed. Compounds were drawn at random from those tested, without regard to their results.

Cc1occc1C(=O)NCC(O)c1ccc(Cl)s1 (stereo not given) read -7.449%. With Cc1csc(N2CCC(NCC3(O)CCc4ccccc43)CC2)n1 (stereo not given) the screen gave -36.25%. With CC(C)N(C)C(=O)C1=NOC2(CCN(C(=O)c3cccn3C)C2)C1 (stereo not given) the screen gave -10.45%. CC(C)CN1C(=O)CC[C@H]2CN(C(=O)Cn3ccc(=O)cc3)CC[C@H]21 read -22.88%. For CN(Cc1cnn(C)c1)CC(O)c1ccc2c(c1)OCO2 (stereo not given) the result was -26.5%. Cc1cc(C)n(CC2CN(CC3CCCC3)CCO2)n1 (stereo not given) read -17.09%. Cc1cc(C(F)(F)F)nc(CNC(=O)CCn2cccn2)n1 gave -5.992%. CCOc1cc(C)nc(N2CCN(C(=O)c3cnc[nH]3)CC2)n1 gave -11.96%.

With O=S(=O)(NCc1ccccc1)N(Cc1ccccn1)CC1CCCO1 (stereo not given) the screen gave -9.428%. For COc1ccc(C(CO)NC(=O)Nc2cccnc2)cc1 (stereo not given) the result was -6.043%. Cc1ccc(C(=O)N2CCC(c3noc(-c4cccnc4)n3)CC2)cn1 read -12.55%. Result for COc1ccc(CN2CCC(c3cc(O)nc(C)n3)C2)c(F)c1 (stereo not given) was 19.92%. For Cn1cc(S(=O)(=O)NCCc2ccsc2)cn1 the result was -15.18%. With CNC(=O)N1CCC2(CC1)CN(C)Cc1cc(F)ccc12 the screen gave -15.28%. For COCCCS(=O)(=O)N1CCN(Cc2cccn2C)CC1 the result was -18.06%. With CO[C@H]1CCN(c2ncccn2)[C@H]1Cc1ccccc1 the screen gave 0.8632%.

With CCc1ccc(C(NC(=O)CN(C)S(C)(=O)=O)C(C)(C)C)o1 (stereo not given) the screen gave 0.6475%. With O=C(NS(=O)(=O)c1cc(Cl)ccc1Cl)c1cccc2c1OCCO2 the screen gave 32.25%. For O=S(=O)(C1CC1)N1CC[C@]2(C[C@@H](Oc3ccccn3)CO2)C1 the result was -7.234%. With Cc1nc(CNC(=O)NCC(O)c2ccc(F)cc2F)cs1 (stereo not given) the screen gave -0.5938%. O=S(=O)(Nc1ccc(N2CCOCC2)cc1)c1cccc(F)c1 read -10.93%. For Cc1nc(C)n(CC2CN(CC(=O)Nc3nccs3)CCO2)n1 (stereo not given) the result was -14.78%. For CCC1CN(CC(=O)NC2(C#N)CCCC2)CCN1CCOC (stereo not given) the result was -13.6%. COc1cccc(CN(C)Cc2[nH]c3ccccc3c2C)c1O gave -15.81%.

Cc1oc(-c2nc(C#N)c(NC3CC3)o2)cc1S(=O)(=O)N1CCCC1 read -2.872%. O=C(CCNc1ccc(Cl)cn1)NCc1ccncc1 gave -9.13%. Result for Cc1cccc(C(=O)NCc2ccccc2)n1 was -8.657%. For COCCNC(=O)N1CCN(C(C)C(=O)NC(C)C)CC1 (stereo not given) the result was -13.72%. CNC(=O)c1ccc(Cn2ccnc2S(C)(=O)=O)cc1 read -4.535%. Result for CNS(=O)(=O)c1ccc(C(=O)NCCNc2ncccn2)cc1 was -8.943%. CS(=O)(=O)N[C@@H]1CN(C(=O)c2ccccn2)[C@@H]2CCCO[C@@H]21 gave -22.09%. Cc1nc(CO[C@@H]2CN(Cc3cccnc3)[C@@H]3COC[C@@H]32)cs1 gave -5.756%.

N#Cc1nccnc1NCCC1CCN(CC(F)(F)F)CC1 gave 10.05%. For CCS(=O)(=O)N1CCC2(CC1)CC[C@@]1(C(=O)NC)CN(C(C)=O)C[C@@H]21 the result was -8.527%. Result for COc1c(C2CCCN2CC(=O)Nc2cccnc2)c(C)nn1C (stereo not given) was 2.076%. CCc1nc2n(n1)CC(Nc1nc(C)cc(N(C)C)n1)CC2 (stereo not given) gave -10.68%. O=C(CCc1cc(Cl)no1)N1CCC(c2cc3ncccc3cn2)CC1 read 128.8%. With O=C(NCCN1CCCCC1)c1ccoc1 the screen gave -3.293%. With Cc1csc(CN2CC[C@H]3C[C@@H](c4nnc(C)[nH]4)O[C@@H]3C2)n1 the screen gave -6.961%.

Once more, the final 2:

- O=C(NCCN1CCCCC1)c1ccoc1 : -3.293%
- Cc1csc(CN2CC[C@H]3C[C@@H](c4nnc(C)[nH]4)O[C@@H]3C2)n1 : -6.961%

Data taken from ChEMBL document CHEMBL3988442, “University of Dundee, Small-Polar-MMV Screening Library” (2021).